Where “and” joins values, the source holds several entries; their conditions need not be identical. Identical values can stand only once. Counter-ions that a name gives are not always drawn. ± gives the standard deviation of the averaged measurements. Some of the results follow. Repeats are few or missing, and single values can be far off.
Test system: RAW 264.7
Test: cell viability (MTT) relative to vehicle control; higher = more viable cells
Details: stimulus: HMGB1 5 ug/ml, 18 h
[1] = compound concentration: 1 ug/ml

SMILES | cell viability (compound concentration: 3 uM) | cell viability [1] [%]
CC(=O)Nc1ccc(OC(=O)c2ccccc2O)cc1 | 110% | 
O=c1c(O)c(-c2ccc(O)cc2)oc2cc(O)cc(O)c12 [Kaempferol] |  | 93.6
N[C@H]1CONC1=O [L-Cycloserine] | 96.4% | 
N[C@H]1CONC1=O [(S)-(-)-Cycloserine] | 96.9% | 
CCCCC1C(=O)N(c2ccccc2)N(c2ccc(O)cc2)C1=O (stereo unspecified) | 106% | 
CCCCC1C(=O)N(c2ccccc2)N(c2ccc(O)cc2)C1=O (stereo unspecified) [Oxyphenbutazone] | 88.6% | 
O=C(CCBr)N1CCN(C(=O)CCBr)CC1 | 113 ± 20% | 
CCN(CC)C(=O)Nc1ccc(OCC(O)CNC(C)(C)C)c(C(C)=O)c1 (stereo unspecified) [Celiprolol HCl] | 101% | 
CC(=O)O[C@]1(C(C)=O)CC[C@H]2[C@@H]3C=C(Cl)C4=CC(=O)CC[C@]4(C)[C@H]3CC[C@@]21C | 107% | 
CC(=O)O[C@]1(C(C)=O)CC[C@H]2[C@@H]3C=C(Cl)C4=CC(=O)CC[C@]4(C)[C@H]3CC[C@@]21C [Chlormadinone acetate] | 85.2% | 106
CC(=O)O[C@]1(C(C)=O)CC[C@H]2[C@@H]3C=C(Cl)C4=CC(=O)CC[C@]4(C)[C@H]3CC[C@@]21C [Chlormadinone Acetate] | 99% | 
CCN(CC)C(C)CN1c2ccccc2Sc2ccccc21 (stereo unspecified) [Ethopropazine hydrochloride] | 112 ± 23% | 
CCN(CC)C(C)CN1c2ccccc2Sc2ccccc21 (stereo unspecified) | 108% | 
CCCNC(=O)NS(=O)(=O)c1ccc(Cl)cc1 [Chlorpropamide] | 90.7 ± 7.4% | 
CCCNC(=O)NS(=O)(=O)c1ccc(Cl)cc1 | 110% | 
O=C1[C@H]2CCCC[C@H]2C(=O)N1CCCCN1CCN(c2nsc3ccccc23)CC1 | 96.7% | 
CN(C)S(=O)(=O)c1ccc2c(c1)/C(=C/c1cc3c([nH]1)CCCC3)C(=O)N2 | 97.4% | 
CN1CCN(C2Cc3ccccc3Sc3ccc(Cl)cc32)CC1 (racemic) [(±)-Octoclothepin maleate] | 95.8% | 
Clc1cccc(Cl)c1NC1=NCCN1 | 102% and 95.2% | 
Clc1cccc(Cl)c1NC1=NCCN1 [Clonidine HCl] | 107% | 
Clc1cccc(Cl)c1NC1=NCCN1 [Clonidine hydrochloride] | 101 ± 8.4% | 
CO[C@H]1/C=C/O[C@@]2(C)Oc3c(C)c(O)c4c(O)c(c5c(nc6cc(C)ccn65)c4c3C2=O)NC(=O)/C(C)=C\C=C\[C@H](C)[C@H](O)[C@@H](C)[C@@H](O)[C@@H](C)[C@H](OC(C)=O)[C@@H]1C [Rifaximin] | 99.3% | 
CO[C@H]1/C=C/O[C@@]2(C)Oc3c(C)c(O)c4c(O)c(c5c(nc6cc(C)ccn65)c4c3C2=O)NC(=O)/C(C)=C\C=C\[C@H](C)[C@H](O)[C@@H](C)[C@@H](O)[C@@H](C)[C@H](OC(C)=O)[C@@H]1C | 113 ± 16% | 

SMILES | cell viability (compound concentration: 3 uM) | cell viability [1] [%]
Cc1ncc(CO)c(C=O)c1O [Pyridoxal hydrochloride] |  | 95.5
N=C(N)NCCCCNC(=N)N [Arcaine sulfate] | 105% | 
Nc1ccn([C@H]2C[C@H](O)[C@@H](CO)O2)c(=O)n1 [2'-Deoxycytidine monohydrate] |  | 103
Nc1ccn([C@H]2C[C@H](O)[C@@H](CO)O2)c(=O)n1 [2'-Deoxycytidine hydrochloride] |  | 98.1
Nc1nc2c(ncn2COC(CO)CO)c(=O)[nH]1 [Ganciclovir] | 105 ± 6.2% | 
Cc1c(N=CC(O)CN2CC3CC(C2)c2cccc(=O)n2C3)c(=O)n(-c2ccccc2)n1C (stereo unspecified) |  | 97.9
CNCCc1ccccn1 | 98.3% | 
CNCCc1ccccn1 [Betahistine mesylate] | 92.3% | 
CC=CC(=O)N(CC)c1ccccc1C | 107 ± 12% | 
CC=CC(=O)N(CC)c1ccccc1C [Crotamiton] | 123 ± 15% | 
CC1CC2C3CCC4=CC(=O)C=CC4(C)C3(F)C(O)CC2(C)C1C(=O)CO (stereo unspecified) | 126% | 
CN(C)C(=N)NC(=N)N [Metformin] | 107% | 
CN(C)C(=N)NC(=N)N | 112% | 
CN(C)C(=N)NC(=N)N [Metformin hydrochloride] | 99.8% | 
NCCCCCC(=O)O | 105% | 
NCCCCCC(=O)O [Aminocaproic acid] | 101% | 
CC(=O)[C@@]1(O)CC[C@H]2[C@@H]3CCC4=CC(=O)CC[C@]4(C)[C@H]3CC[C@@]21C | 113% | 
NC1(C(=O)O)CC1 [1-Aminocyclopropanecarboxylic acid hydrochloride] | 102% | 
CCN(CC)C(=O)c1ccc(O)c(OC)c1 [Vanillic acid diethylamide] | 96.5% | 
CCN(CC)C(=O)c1ccc(O)c(OC)c1 [Ethamivan] | 97.3% | 
CCN(CC)C(=O)c1ccc(O)c(OC)c1 | 95.5% | 
O=C(c1ccc(F)cc1)C1CCN(CCn2c(=O)[nH]c3ccccc3c2=O)CC1 [Ketanserin tartrate hydrate] | 107% | 
O=C(c1ccc(F)cc1)C1CCN(CCn2c(=O)[nH]c3ccccc3c2=O)CC1 [Ketanserin tartrate] | 123% | 

SMILES | cell viability (compound concentration: 3 uM) | cell viability [1] [%]
O=C(c1ccc(F)cc1)C1CCN(CCn2c(=O)[nH]c3ccccc3c2=O)CC1 [Ketanserin] | 99.8% | 
O=C(c1ccc(F)cc1)C1CCN(CCn2c(=O)[nH]c3ccccc3c2=O)CC1 | 114% | 
C[C@H]1[C@H](C)CC[C@]2(C(=O)O)CC[C@]3(C)C(=CC[C@@H]4[C@@]5(C)CC[C@H](O)C(C)(C)[C@@H]5CC[C@]43C)[C@H]12 [Ursolic acid] |  | 93.8
Cc1cc2nc3c(=O)[nH]c(=O)nc-3n(C[C@H](O)[C@H](O)[C@H](O)CO)c2cc1C | 105% | 
O=C(CCCCCN1CCN(c2ccccc2-c2ccccc2)CC1)NC1CCCc2ccccc21 (stereo unspecified) [LP 12 hydrochloride hydrate] | 93% | 
CCCOc1ccc2[nH]c(NC(=O)OC)nc2c1 | 73.4% | 
CCCOc1ccc2[nH]c(NC(=O)OC)nc2c1 [Oxibendazol] | 76.3% | 
CCCOc1ccc2[nH]c(NC(=O)OC)nc2c1 [Oxibendazole] | 81.1% | 
O=C(O)CCc1ccc(NCc2cccc(Oc3ccccc3)c2)cc1 | 105% | 
Cc1[nH]cnc1CN1CCc2c(c3ccccc3n2C)C1=O | 99.2% | 
O=C1NC(=O)c2cc(Nc3ccccc3)c(Nc3ccccc3)cc21 | 94.3% | 
CCCCCC(=O)OC1(C(C)=O)CCC2C3CCC4=CC(=O)CCC4(C)C3CCC21C (stereo unspecified) [17a-Hydroxyprogesterone hexanoate] |  | 114
Clc1ccc2c(c1)CCc1cccnc1C2=C1CCNCC1 | 97.5% | 
Clc1ccc2c(c1)CCc1cccnc1C2=C1CCNCC1 [Desloratadine] | 104 ± 6.7% | 
O=C1NCC2(CCN(CCc3ccccc3)CC2)O1 [Fenspiride hydrochloride] | 105.89 ± 0.014% | 
O=C1NCC2(CCN(CCc3ccccc3)CC2)O1 | 111% | 
Cl.N[C@@H](CCC(=O)O)C(=O)O [L-Glutamic acid hydrochloride] | 107% | 
CN(C)CCOC(c1ccccc1)c1ccccc1.Cn1c(=O)c2[nH]c(Cl)nc2n(C)c1=O | 96% | 
CN(C)CCOC(c1ccccc1)c1ccccc1.Cn1c(=O)c2[nH]c(Cl)nc2n(C)c1=O [Dimenhydrinate] | 102% | 
CN(CCCN1c2ccccc2CCc2ccccc21)CC(=O)c1ccc(Cl)cc1 | 100% | 
CSC(=N)N [S-Methylisothiourea hemisulfate] | 102% | 
C[C@@](Cc1ccc(O)c(O)c1)(NN)C(=O)O [Carbidopa] | 108 ± 3.5% | 
C[C@@](Cc1ccc(O)c(O)c1)(NN)C(=O)O | 104% | 

SMILES | cell viability (compound concentration: 3 uM) | cell viability [1] [%]
CCOc1nc2cccc(C(=O)O)c2n1Cc1ccc(-c2ccccc2-c2nnn[nH]2)cc1 [Candesartan] | 99.5 ± 15% | 
NC[C@@H]1O[C@H](C23CC4CC(CC(C4)C2)C3)Cc2c1ccc(O)c2O | 106% | 
CC[C@H](C)[C@H](N)C(=O)O [L-Isoleucine] |  | 89
Nc1ncnc2c1ncn2[C@@H]1O[C@H](CO)[C@@H](O)[C@@H]1O [Vidarabine] | 114 ± 13% | 
Nc1ncnc2c1ncn2[C@@H]1O[C@H](CO)[C@@H](O)[C@@H]1O | 103% | 
CC1CCN(CC[C@H]2CCCN2S(=O)(=O)c2cccc(O)c2)CC1 | 123% | 
CCC1(c2ccccc2)C(=O)NCNC1=O | 107% | 
CCC1(c2ccccc2)C(=O)NCNC1=O [Primidone] | 107 ± 1.5% | 
N#Cc1ccc2c(c1)N(CCCN1CCC(O)CC1)c1ccccc1S2 | 108% | 
CC(C)(S)C(N)C(=O)O (single isomer, unassigned; (+)) [(+)-Penicillamine] |  | 108
COc1cc(OC)c2c(C)cc(=O)oc2c1 [5,7-Dimethoxy-4-methylcoumarin] |  | 119
CC(=O)OC[C@H]1O[C@@H]([S-])[C@H](OC(C)=O)[C@@H](OC(C)=O)[C@@H]1OC(C)=O.CCP(CC)CC.[Au+] [Auranofin] | 5.12 ± 2% | 
c1ccc(-c2ccc(C(c3ccccc3)n3ccnc3)cc2)cc1 (stereo unspecified) [Bifonazole] | 103 ± 2.5% | 
c1ccc(-c2ccc(C(c3ccccc3)n3ccnc3)cc2)cc1 (stereo unspecified) | 106 ± 5.3% | 
Oc1c(Cl)cc(Cl)c2cccnc12 [Chloroxine] | 104% | 
Oc1c(Cl)cc(Cl)c2cccnc12 | 98.2% | 
O=C1CC[C@@H](C(=O)N2CSC[C@H]2C(=O)O)N1 | 101% | 
COc1ccccc1N1CCN(CCCNc2c(C)c(=O)n(C)c(=O)n2C)CC1 [Urapidil, 5-Methyl-] | 122% | 
NC[C@@H]1O[C@H](O[C@H]2[C@@H](O)[C@H](O[C@@H]3[C@@H](O)[C@H](N)C[C@H](N)[C@H]3O[C@H]3O[C@H](CO)[C@@H](O)C[C@H]3N)O[C@@H]2CO)[C@H](N)[C@@H](O)[C@@H]1O[C@H]1O[C@H](CO)[C@@H](O)[C@H](O)[C@@H]1O [Lividomycin A sulfate salt] |  | 94.9
CN(C)CCC(c1ccc(Br)cc1)c1ccccn1 (stereo unspecified) [Brompheniramine maleate] | 131% | 
CN(C)CCC(c1ccc(Br)cc1)c1ccccn1 (stereo unspecified) | 108% | 

Source: the supplement of paper PMC3682954
